The list is a part of this screen's results and no random one: it gathers tests that were run many times, whatever their T/C, doses with no T/C, and many T/C values between a quarter and a half above the control. Further doses and runs are listed elsewhere. T/C: endpoint of the treated group in % of that of the vehicle group. Some doses have a count of surviving animals in place of a T/C: the source holds a T/C of zero for them, seemingly a mark for toxic or unscored doses. Some survivor counts are full or nearly so, which does not show that the dose was tolerated: survival well below the control is almost never listed, so the zero probably covers shortened survival too. Survivors were counted at the toxicity check, usually on the fifth day, unless a day is given; later deaths do not show. Schedule codes are those of the source, taken here to give the interval after Q, in days (D) or hours (H), and the number of doses after X. Some molecules as drawn cover several salts, stereoisomers or complexes of the source; a dose is that of the sample tested. Marks such as (2×) count equal records among those shown. Some entries hold several experiments; the results are listed from low to high. Where survival is the endpoint, the PubChem record calls one and a half times the control and up active, and a quarter to a half above the control has no call in these data; cut-offs in other NCI protocols can differ. Some T/C values carry the count of animals alive at the toxicity check (mostly the fifth day); where none is given, no animal had died by that day.
Tested on: P388 leukemia ip, CD2F1 mice, survival T/C
Assay: NCI In Vivo Anticancer Drug Screen. Data for tumor model P388 Leukemia (intraperitoneal) in CD2F1 (CDF1) mice
Details: T/C endpoint: median survival time, higher T/C = longer survival
[1] = dose: 200.0 mg/kg/injection, schedule: Q01DX005 (ip), vehicle: saline with Tween-80
[2] = dose: 160.0 mg/kg/injection, schedule: Q01DX009 (ip), vehicle: water
[3] = dose: 400.0 mg/kg/injection, schedule: Q01DX009 (ip), vehicle: saline

CC1(C)N=C(N)N=C(N)N1c1ccc(OCCCNC(=O)Nc2cccc(S(=O)(=O)F)c2)c(Cl)c1
T/C (dose: 50.0 mg/kg/injection, schedule: Q04DX003 (ip), vehicle: saline with Tween-80): 125 % of control
T/C (dose: 66.0 mg/kg/injection, schedule: Q04DX003 (ip), vehicle: saline with Tween-80): 129 % of control
T/C (dose: 100.0 mg/kg/injection, schedule: Q04DX003 (ip), vehicle: saline with Tween-80): 135 and 137 % of control [5 of 6 alive]
survivor count (dose: 150.0 mg/kg/injection, schedule: Q04DX003 (ip), vehicle: saline with Tween-80): 6 of 6
survivor count (dose: 200.0 mg/kg/injection, schedule: Q04DX003 (ip), vehicle: saline with Tween-80): 0 of 6

O=S1(=O)C2C=CC1C(Br)C(Br)CC2 (stereo not given)
survivor count (dose: 50.0 mg/kg/injection, schedule: Q01DX009 (ip), vehicle: Klucel (hydroxypropylcellulose) (HPC)): 6 of 6

CN=C(N)N/N=C(\C)c1ccc2c(c1)Cc1cc(Br)ccc1-2
survivor count (dose: 100.0 mg/kg/injection, schedule: Q04DX002 (ip), vehicle: saline with Tween-80): 1 of 6

O/N=C/c1cccc(O)c1O
T/C [1]: 125 % of control

Nc1nc(-c2ccccc2N=NN2CCCCC2)nc2ccccc12
T/C (dose: 200.0 mg/kg/injection, schedule: Q01DX009 (ip), vehicle: Klucel (hydroxypropylcellulose) (HPC)): 127 and 137 % of control
T/C (dose: 400.0 mg/kg/injection, schedule: Q01DX009 (ip), vehicle: Klucel (hydroxypropylcellulose) (HPC)): 126 % of control [5 of 6 alive]

O=[N+]([O-])c1cnc2n(O)cccc1-2
survivor count (dose: 400.0 mg/kg/injection, schedule: Q01DX001 (ip), vehicle: saline with Tween-80): 3 of 6

O=C(N1CCCCC(Cl)(Cl)C1=O)C(Cl)(Cl)Cl
survivor count [1]: 3 of 5

O=C1C2C3C=CC(C2C(=O)N1COP(=O)(O)O)C1C2C(=O)N(COP(=O)(O)O)C(=O)C2C31 (stereo not given)
T/C [2]: 136 % of control

O=C1OCCN1/N=C\c1ccccc1
survivor count [3]: 5 of 6

CC1=C(C(=O)Nc2cc(O)ccc2O)C(c2cccc([N+](=O)[O-])c2)C(C(=O)Nc2cc(O)ccc2O)=C(C)N1
survivor count (dose: 60.0 mg/kg/injection, schedule: Q01DX005 (ip), vehicle: Klucel (hydroxypropylcellulose) (HPC)): 6 of 6
survivor count (dose: 120.0 mg/kg/injection, schedule: Q01DX005 (ip), vehicle: Klucel (hydroxypropylcellulose) (HPC)): 6 of 6
survivor count (dose: 240.0 mg/kg/injection, schedule: Q01DX005 (ip), vehicle: Klucel (hydroxypropylcellulose) (HPC)): 6 of 6

Cc1nn(C)c2nc(=O)n(C)c(=O)c-2[n+]1[O-]
survivor count (dose: 0.78 mg/kg/injection, schedule: Q01DX001 (ip), vehicle: Klucel (hydroxypropylcellulose) (HPC)): 0 of 6
survivor count (dose: 1.56 mg/kg/injection, schedule: Q01DX001 (ip), vehicle: Klucel (hydroxypropylcellulose) (HPC)): 0 of 6
survivor count (dose: 3.12 mg/kg/injection, schedule: Q01DX001 (ip), vehicle: Klucel (hydroxypropylcellulose) (HPC)): 0 of 6 (2×)
survivor count (dose: 6.25 mg/kg/injection, schedule: Q01DX001 (ip), vehicle: Klucel (hydroxypropylcellulose) (HPC)): 0 of 6
survivor count (dose: 12.5 mg/kg/injection, schedule: Q01DX001 (ip), vehicle: Klucel (hydroxypropylcellulose) (HPC)): 0 of 6
survivor count (dose: 12.5 mg/kg/injection, schedule: Q01DX001 (ip), vehicle: saline): 0 of 6
survivor count (dose: 25.0 mg/kg/injection, schedule: Q01DX001 (ip), vehicle: saline): 0 of 6
survivor count (dose: 50.0 mg/kg/injection, schedule: Q01DX001 (ip), vehicle: saline): 0 of 6

CC(=O)Oc1cccn(C)c1=O
T/C (dose: 600.0 mg/kg/injection, schedule: Q01DX009 (ip), vehicle: saline): 135 [5 of 6 alive] and 144 % of control
survivor count (dose: 800.0 mg/kg/injection, schedule: Q01DX009 (ip), vehicle: saline): 0 of 6

COc1cc(C2CC(C)(OC)Oc3cc4c(cc32)OCO4)cc(OC)c1OC (stereo not given)
T/C (dose: 240.0 mg/kg/injection, schedule: Q01DX005 (ip), vehicle: saline with Tween-80): 130 % of control
survivor count (dose: 480.0 mg/kg/injection, schedule: Q01DX005 (ip), vehicle: saline with Tween-80): 0 of 6 and 3 of 6

CN(C)CCN(C)CC(C)(C)C(=O)/C=C/c1ccc(Cl)c(Cl)c1
T/C (dose: 30.0 mg/kg/injection, schedule: Q01DX005 (ip), vehicle: saline): 127 % of control
T/C (dose: 60.0 mg/kg/injection, schedule: Q01DX005 (ip), vehicle: saline): 104, 115, 117 % of control (2×)
survivor count (dose: 120.0 mg/kg/injection, schedule: Q01DX005 (ip), vehicle: saline): 0 of 6
survivor count (dose: 240.0 mg/kg/injection, schedule: Q01DX005 (ip), vehicle: saline): 0 of 6

NC(CCC(=O)NC(CS)C(=O)NCC(=O)O)C(=O)O.[CH2-]CCC.[CH2-]CCC.[CH2-]CCC.[CH2-]CCC.[Ti+4] (stereo not given)
survivor count [1]: 6 of 6

Nc1ncnc2c1ncn2C1OC(COP(=O)(O)O)C(O)C1O (stereo not given)
survivor count (dose: 25.0 mg/kg/injection, schedule: Q01DX009 (ip), vehicle: saline): 6 of 6
T/C (dose: 37.5 mg/kg/injection, schedule: Q03HX016 (ip), vehicle: saline): 130 % of control
T/C (dose: 37.5 mg/kg/injection, schedule: Q03HX024 (ip), vehicle: saline): 130 % of control
T/C (dose: 50.0 mg/kg/injection, schedule: Q03HX016 (ip), vehicle: water): 146 % of control
T/C (dose: 50.0 mg/kg/injection, schedule: Q03HX024 (ip), vehicle: water): 144 % of control
T/C (dose: 100.0 mg/kg/injection, schedule: Q01DX009 (ip), vehicle: water): 132 % of control
T/C (dose: 150.0 mg/kg/injection, schedule: Q03HX024 (ip), vehicle: water): 126 % of control
T/C [2]: 127 % of control
T/C (dose: 200.0 mg/kg/injection, schedule: Q01DX005 (ip), vehicle: water): 131 % of control
T/C (dose: 200.0 mg/kg/injection, schedule: Q01DX009 (ip), vehicle: water): 149 % of control
T/C (dose: 250.0 mg/kg/injection, schedule: Q03HX024 (ip), vehicle: water): 133 % of control
T/C (dose: 320.0 mg/kg/injection, schedule: Q01DX009 (ip), vehicle: water): 125 and 133 % of control
T/C (dose: 400.0 mg/kg/injection, schedule: Q01DX005 (ip), vehicle: water): 137 % of control
survivor count (dose: 400.0 mg/kg/injection, schedule: Q01DX009 (oral), vehicle: water): 8 of 10
T/C (dose: 400.0 mg/kg/injection, schedule: Q03HX009 (ip), vehicle: water): 149 % of control
T/C (dose: 640.0 mg/kg/injection, schedule: Q01DX009 (ip), vehicle: water): 142 % of control
T/C (dose: 800.0 mg/kg/injection, schedule: Q03HX024 (ip), vehicle: water): 138 % of control
T/C (dose: 800.0 mg/kg/injection, schedule: Q04DX003 (ip), vehicle: water): 128 % of control
T/C (dose: 1600.0 mg/kg/injection, schedule: Q04DX003 (ip), vehicle: water): 130 % of control
T/C (dose: 1600.0 mg/kg/injection, schedule: Q08DX002 (ip), vehicle: water): 132 % of control

CC1(C)C2CCC(CN)C1C2 (stereo not given)
survivor count (dose: 100.0 mg/kg/injection, schedule: Q01DX009 (ip), vehicle: other): 0 of 6

Clc1ccccc1-n1cccc1/C=N\N=C/c1cccn1-c1ccccc1Cl
survivor count (dose: 50.0 mg/kg/injection, schedule: Q01DX005 (ip), vehicle: saline with Tween-80): 6 of 6
survivor count (dose: 100.0 mg/kg/injection, schedule: Q01DX005 (ip), vehicle: saline with Tween-80): 6 of 6

CC1(C)N=C(N)N=C(N)N1c1ccc(CCC(=O)Nc2ccc(S(=O)(=O)F)cc2)cc1
T/C (dose: 2.9 mg/kg/injection, schedule: Q01DX009 (ip), vehicle: saline with Tween-80): 145 % of control
survivor count (dose: 100.0 mg/kg/injection, schedule: Q01DX009 (ip), vehicle: saline): 6 of 6
survivor count (dose: 150.0 mg/kg/injection, schedule: Q01DX009 (ip), vehicle: saline with Tween-80): 6 of 6
survivor count (dose: 200.0 mg/kg/injection, schedule: Q01DX009 (ip), vehicle: saline): 6 of 6
survivor count [3]: 5 of 6

O=C1CN(Cc2cccc(Cl)c2)CC(=O)N2Cc3ccccc3CN12
survivor count [1]: 5 of 5

Cc1ccc(C(=O)Cc2ccccc2C#N)cc1
survivor count (dose: 50.0 mg/kg/injection, schedule: Q01DX005 (ip), vehicle: Klucel (hydroxypropylcellulose) (HPC)): 5 of 5
survivor count (dose: 100.0 mg/kg/injection, schedule: Q01DX005 (ip), vehicle: Klucel (hydroxypropylcellulose) (HPC)): 5 of 5

Reference: PubChem BioAssay AID330 (DTP/NCI, 2004)
